Measurements from “University of Dundee, Small-Polar-MMV Screening Library” (2021), ChEMBL document CHEMBL3988442.

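Viability assay of Plasmodium falciparum sporozoites; the read-out is not stated. The concentration is filed as 10 mM, unlikely as a test dose, so the dose is not known. The record gives no direction; compounds that gave an IC50 in retests scored well above the rest, so higher reads as lower viability. Strong results were mostly tested again. Size under these conditions: about 34,000 compounds, about 280 of them at 50% or above in at least one test.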

Results are given as percent effect.
How 0% and 100% were set is not recorded. Most values in the screen are low, and negative values occur.
The compounds are a random part of those screened.
Two or more numbers in one place are separate tests of the same structure; such repeats can differ widely.

structure	Percent Effect
Cc1ccc(C(C)NCCc2nccn2Cc2ccccc2)o1 (configuration not stated)	-4.061%
CNC(=O)C1(c2cnccn2)CCCN1C(=O)c1ccccn1 (configuration not stated)	6.084%
CCc1noc(CNc2ccc(C(=O)N3CCCC(C)C3)cc2C)n1 (configuration not stated)	-158.9% & 13.74% & -155%
CCCn1nc(C)c(C(=O)N(C)[C@@H]2CC[C@@H](N3CCCC3)[C@@H]2O)c1C	-1.144%
Cc1nn(C)c(N2CCOCC2)c1CNC(C)c1ccco1 (configuration not stated)	3.583%
CN1CCOCC12CCN(C(=O)C1CCC1)CC2.O=C(O)C(F)(F)F	-14.08%
CNc1cncc(C2CCCN2c2cc(C)ncn2)n1 (configuration not stated)	9.903%
CC(C)COC(C)C(=O)N1CCN(S(C)(=O)=O)CC1 (configuration not stated)	3.66%
CCOCc1cccc(S(=O)(=O)N2CCSCC2)c1	-8.114%
CCN(C)C[C@@H]1CN(Cc2cnc3c(S(C)(=O)=O)cnn3c2)C[C@@H]1CO	-31.83% & -20.24%
CCn1nc(C)c(CCNC(=O)C2CCCN(CC(N)=O)C2)c1C (configuration not stated)	-13.83%
CCN1CCCC(O)(c2nc(C)c(CCOc3ccccc3Cl)s2)CC1 (configuration not stated)	6.139%
Cn1cnc(S(=O)(=O)NCCN2CCCCCC2=O)c1Cl	0.32%
O=C(CCNS(=O)(=O)c1ccc(F)cc1)NCc1ccoc1	-13.73%
COc1ccc2c(c1)OC1(CCN(Cc3ccc(F)cc3)CC1)CC2=O	1.33%
O=C(O)C(F)(F)F.[H][C@@]12CCN(c3cnccn3)C[C@]1([H])CN(C(=O)c1ccn(C)n1)C2	0.5963%
O=C(O)C(F)(F)F.[H][C@@]12OCCN(S(=O)(=O)CC)[C@@]1([H])CC[C@H]2Oc1ncccc1F	-8.684%
COc1cc(C)nc(N2CCN(C(=O)COC3CCCC3)CC2)n1	-2.285%
CC(C)CC(=O)NCCn1nc(C2CCNC2)c2cccnc21.Cl (configuration not stated)	-6.804%
CN1CCOC(C)(C(=O)Nc2nccs2)C1 (configuration not stated)	2.59%
Cc1cccc2cc(C(=O)N3CCC(F)(F)CC3)n(C)c12	11.72%
COc1ccc(CNC2(Cc3cc(CC(C)C)on3)COC2)cc1	7.72% & 17.56%
COC(=O)c1cccc(NCC(=O)NC(N)=O)c1	9.518%
Cc1nc(Nc2ncccn2)cc(C2CCCN2Cc2ncc[nH]2)n1 (configuration not stated)	2.332%
Cc1nc(CN(Cc2ccc3c(c2)OCCO3)C2CCCC2)no1	-229.4% & 33.37% & -328%
CCOC(=O)Cn1ccc(NC(=O)Cc2ccccc2F)n1	-3.893% & -2.628%
CCCS(=O)(=O)N1CCC(NC(=O)c2ccc(C)s2)CC1	-14.95%
CCCN(C1CCc2ccccc2C1)S(C)(=O)=O (configuration not stated)	-10.41%
CCOc1ccnc(N2CCN(C(=O)c3ccoc3C)CC2)n1	-0.6901%
CC(C)c1nc(CN(C)C(=O)CCc2ccc3c(c2)OCO3)cs1	-20.77%
COc1ccc(OC)c(NC(=O)CSc2ccc3nncn3n2)c1	-14.93%
COc1ccc(CC(=O)N2CCCCC2Cn2cccn2)cc1 (configuration not stated)	-1.259%
Cc1cc(C)cc(NC(=O)CN2CCCC(n3cncn3)C2)c1 (configuration not stated)	-8.104%
[H][C@@]12CNC(=O)[C@H](C)[C@]1([H])CN(Cc1cc(OC)cc(OC)c1)C2	10.65%
O=C(O)C(F)(F)F.[H][C@@]12CCN(c3cnccn3)C[C@]1([H])CN(C(=O)CC1CC1)C2	-1.057%
O=C(N1CCCC1)N1CCc2ncnc(C3CCOC3)c2CC1 (configuration not stated)	-26.87%
N#CCCCS(=O)(=O)NC1(c2cccc(Cl)c2)CC1	-6.319%
O=C(O)C(F)(F)F.[H][C@@]12CCCO[C@]1([H])[C@H](N(C)Cc1cncnc1)CN2C(=O)c1ccco1	19.69%
Cc1cc(C)n(C2CCCN(C(=O)COCC(F)(F)F)C2)n1 (configuration not stated)	-9.179%
O=C(O)C(F)(F)F.O=C(O)C(F)(F)F.[H][C@@]12CCN(Cc3cccc(C)n3)[C@@]1([H])CCN2Cc1cccs1	2.194%
O=C(NCc1cccnc1-n1cccn1)C1CC(=O)N(CC2CC2)C1 (configuration not stated)	-4.162%
CC(=O)N[C@@H]1CN(Cc2cccs2)C[C@H]1c1ccc(C)o1	1.754%
O=C(NCC1(O)COCCN(Cc2ccc(O)cc2)C1)c1cnccn1 (configuration not stated)	2.941%
Cc1sc2nc(C(F)(F)F)nc(N3CCN(S(C)(=O)=O)CC3)c2c1C	13.32%
Cc1cccc(-c2noc(CN3CC(n4cccn4)C3)n2)c1	-40.65% & 57.58% & -17.63%
CSCC[C@H](N)c1nnc(SCC(=O)Nc2ccc(Br)cc2)o1.Cl	3.724%
CN1CCN(CCCNS(=O)(=O)Cc2ccccc2F)CC1	-11.72%
Cc1nnc(NCc2ccccc2Cl)c(C#N)c1C	-2.757%
Cc1cc(C(=O)N2CCCC(n3ccnc3)C2)c(C)n1C1CC1 (configuration not stated)	-9.183%
Cc1cc(C(=O)N2CCN(c3ncc4c(n3)CCOC4)CC2)sc1C	-7.443%
CCOCC1CN(c2ncccn2)Cc2cnn(CC3CCOCC3)c21 (configuration not stated)	2.19%
CC(C)c1nccn1-c1cccc(C2CCCN2S(=O)(=O)N(C)C)n1 (configuration not stated)	-1.885%
[H][C@@]12C[C@H](C(=O)NCc3ccco3)CN(C(=O)N(C)C)[C@]1([H])CCO2	19.22%
O=C1CCC2(CCN(Cc3cc(F)ccc3Cl)CC2)CN1C1CCCC1	-4.292%
CC(NC(=O)Nc1ccc(N2CCCC2)nc1)c1nncn1C (configuration not stated)	7.147%
COCCNC(=O)C1(c2ccccc2C)CCOCC1	1.44%
COc1ccc2c(c1)nc1n2[C@@H](CNC(=O)c2cccnc2)COC1	3.738% & 7.994%
Cc1ccc(-n2ncc(C(=O)N(C)C3CCN(C)CC3)c2N)cc1C	2.164% & -0.502% & -11.55%
CCc1noc(CN2CCN(CC(O)c3ccccc3)CC2)n1 (configuration not stated)	-13.11% & -4.913% & -24.92%
OCC(CO)N1CCC(c2nccnc2Nc2cnccn2)CC1	1.918%
COc1ccc2c(c1)C(=O)NC1(CC2)CCN(Cc2ccccn2)C1 (configuration not stated)	-2.601%
C1CCC(NCCN2CCOCC2)C1	-7.815%
Cc1nc(CNC(=O)Nc2cc(F)ccc2N2CCN(C)CC2)no1	-5.796%
COc1ccccc1C1CNC(=O)c2nc(-c3cnn(C)c3)[nH]c2C1 (configuration not stated)	1.294%
CN(C)C(=O)NC1COC2(CCN(Cc3ccc(N(C)C)cc3)CC2)C1 (configuration not stated)	-22.09% & -9.776% & 8.081%
CC(=O)NCc1nnc2n1CCN(c1ncnc3c(C)csc13)CC2	-7.815%
CCn1ccnc1CN1CCN(CC(=O)NC(C)(C#N)C2CC2)CC1 (configuration not stated)	-12.35% & 31.99% & -13.48%
CC(=O)N1CCC(c2c(CN(C)C)cnc3cc(C)nn23)CC1	12.11%